Experimental data reported in patent US20090010923A1, “TREATMENT OF CANCER WITH ANTI-MUSCARINIC RECEPTOR AGENTS” (University of Maryland, Baltimore, priority 2007, published 2009).

Tested on: muscarinic receptor subtypes
Settings: in vitro

CN1[C@@H]2C[C@@H](OC(=O)[C@H](CO)c3ccccc3)C[C@H]1[C@@H]1O[C@@H]12 [scopolamine]
attenuation of bile acid actions: attenuated
